Counter-ions that a name gives are not always drawn. This is one part of the list. This data set is noisy: repeats of one test often differ as much as different tests do.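 Wild-type human LRH-1, a heavily sumoylated nuclear receptor, is tetracycline-inducible in stable JEG3 cells. RT-qPCR measured SUMO-sensitive APOC3 and MUC1 transcripts, which rise with SUMO-less LRH-1 or UBC9 knockdown, versus TBP and DMSO controls. Robust Z-scores beyond ±2 flagged primary hits, followed by toxicity and TBP filtering.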
Each compound was assayed on JEG3 expressing hLRH-1 (assay: MUC1 transcript change (ddCt vs TBP and DMSO), Z-score over library; higher = higher MUC1 expression). Conditions: 10 µM; time (hr): 24.

Compound | MUC1 transcript change (Z-score)
CC(=O)/N=c1\sc(S(N)(=O)=O)nn1C [methazolamide] | -0.0821
CC(CCc1ccc(O)cc1)NCC(O)c1ccc(O)cc1 (configuration not stated) [ractopamine hydrochloride] | -1.24
CC(C)C(=O)Nc1ccc([N+](=O)[O-])c(C(F)(F)F)c1 [flutamide] | 0.279
CCOC(N)=O [urethane] | 0.357
COc1cc2nc(N3CCN(C(=O)c4ccco4)CC3)nc(N)c2cc1OC [prazosin hydrochloride] | -0.491
Cc1ccc(/C(=C\CN2CCCC2)c2ccccn2)cc1 [Triprolidine hydrochloride] | 1.46
OCCN(CCO)c1nc(N2CCCCC2)c2nc(N(CCO)CCO)nc(N3CCCCC3)c2n1 [Dipyridamole] | -0.645
CC(=O)SCC(Cc1ccccc1)C(=O)NCC(=O)OCc1ccccc1 (configuration not stated) [racecadotril] | 0.664
N[C@@H](CC(=O)N1CCn2c(nnc2C(F)(F)F)C1)Cc1cc(F)c(F)cc1F [sitagliptin monophosphate monohydrate] | 1.52
Oc1ccc2ccccc2c1 [beta-naphthol] | 0.256
CC[C@@H]1OC(OC(c2c[nH]cn2)C(NC(=O)c2nc(C(CC(N)=O)NCC(N)C(N)=O)nc(N)c2C)C(=O)NC(C)C(O)C(C)C(=O)NC(C(=O)NCCc2nc(-c3nc(C(=O)NCCCCN=C(N)N)cs3)cs2)C(C)O)[C@@H](O[C@H]2O[C@H](CO)[C@@H](O)[C@H](OC(N)=O)[C@@H]2O)[C@@H](C)[C@@H]1C (some centres not stated) [bleomycin (bleomycin b2 shown)] | -1.06
C=C1CC[C@H](O)C/C1=C/C=C1\CCC[C@]2(C)[C@@H]([C@H](C)CCCC(C)C)CC[C@@H]12 [cholecalciferol] | 0.27
CCc1cn(C2OCC(O)C2CO)c(=O)[nH]c1=O (configuration not stated) [edoxudine] | 0.356
NNCCc1ccccc1 [phenelzine sulfate] | 0.929
CC(=O)S[C@@H]1CC2=CC(=O)CC[C@]2(C)[C@H]2CC[C@@]3(C)[C@@H](CC[C@@]34CCC(=O)O4)[C@H]12 [spironolactone] | -0.269
CN(C)c1ccc(C(=C2C=CC(=[N+](C)C)C=C2)c2ccc(N(C)C)cc2)cc1 [gentian violet] | 0.076
CN1CCC(=C2c3ccccc3CCc3sccc32)CC1 [pizotyline malate] | -0.258
O=C(OCC(O)CO)c1ccccc1Nc1ccnc2cc(Cl)ccc12 (configuration not stated) [glafenine] | 0.524
CN1CCN(CC(=O)N2c3ccccc3C(=O)Nc3cccnc32)CC1 [Pirenzepine dihydrochloride] | 0.415
C=CC(N)CCC(=O)O (racemic) [(±)-gamma-Vinyl GABA] | 0.84
O=C(c1ccc(OCCN2CCCCC2)cc1)c1c(-c2ccc(O)cc2)sc2cc(O)ccc12 [raloxifene hydrochloride] | 0.849
CN1CCN(CC/C=C2/c3ccccc3Sc3ccc(S(=O)(=O)N(C)C)cc32)CC1 [thiothixene] | 0.06
OC(Cn1cncn1)(Cn1cncn1)c1ccc(F)cc1F [fluconazole] | 0.654
O=C(O)CCNC(=O)c1ccc(N=Nc2ccc(O)c(C(=O)O)c2)cc1 [balsalazide disodium] | -0.363

Compound | MUC1 transcript change (Z-score)
NCCc1c[nH]cn1 [Histamine dihydrochloride] | 0.0626
CCCOc1cc(N)ccc1C(=O)OCCN(CC)CC [propoxycaine hydrochloride] | -0.642
CC(=O)[C@@]1(O)CC[C@H]2[C@@H]3C=C(Cl)C4=CC(=O)[C@@H]5C[C@@H]5[C@]4(C)[C@H]3CC[C@@]21C [cyproterone] | -0.17
CC[N+](C)(C)c1cccc(O)c1 [edrophonium chloride] | -0.554
OC1(c2ccc(Cl)c(C(F)(F)F)c2)CCN(CCCC(c2ccc(F)cc2)c2ccc(F)cc2)CC1 [penfluridol] | 0.869
CN1CCN(C(c2ccccc2)c2ccccc2)CC1 [cyclizine] | -0.224
CC(=O)OCC(=O)[C@@]1(O)CC[C@H]2[C@@H]3CCC4=CC(=O)C=C[C@]4(C)[C@@]3(Cl)[C@@H](Cl)C[C@@]21C [dichlorisone acetate] | -1.85
FC(F)(F)C(Cl)Br (configuration not stated) [halothane] | 0.886
CCCCN(CCCC)CCCOC(=O)c1ccc(N)cc1 [butacaine] | 0.641
CC(=O)OCC(=O)[C@@]1(O)CC[C@H]2[C@@H]3CCC4=CC(=O)CC[C@]4(C)[C@@]3(F)[C@@H](O)C[C@@]21C [fludrocortisone acetate] | -1.56
CC(O)CN(CCN(CC(C)O)CC(C)O)CC(C)O (configuration not stated) [editol] | 0.68
O=C1CC[C@@H](C(=O)N2CSC[C@H]2C(=O)O)N1 [pidotimod] | 0.379
CN(C)c1cnccn1 [ampyzine sulfate] | 0.727
CCCCCCOC(=O)NC(=N)c1ccc(NCc2nc3cc(C(=O)N(CCC(=O)OCC)c4ccccn4)ccc3n2C)cc1 [dabigatran etexilate mesylate] | -0.672
C[C@]12CCC(=O)C=C1CCC1C2C(=O)C[C@@]2(C)C1CC[C@]2(O)C(=O)CO (some centres not stated) [cortisone] | 0.586
CC(=O)OCC(=O)NCCCOc1cccc(CN2CCCCC2)c1 [roxatidine acetate hydrochloride] | -0.147
O=C(CCCl)NCc1ccccc1 [beclamide] | 0.669
CCO/C(O)=C1/C(C)=NC(C)=C(C(=O)OC)C1c1cccc(Cl)c1Cl (configuration not stated) [felodipine] | -0.277
CN(C)CCC=C1c2ccccc2C=Cc2ccccc21 [cyclobenzaprine hydrochloride] | -1.85
CC(C(=O)O)c1cccc(Oc2ccccc2)c1 (configuration not stated) [fenoprofen] | -0.451
CCCCC/C=C/CCC(=O)N[C@H]1[C@H](Oc2c3cc4cc2Oc2ccc(cc2Cl)[C@@H](O[C@@H]2O[C@H](CO)[C@@H](O)[C@H](O)[C@H]2NC(C)=O)[C@@H]2NC(=O)[C@H](NC(=O)[C@@H]4NC(=O)[C@H]4NC(=O)C(Cc5ccc(c(Cl)c5)O3)NC(=O)[C@H](N)c3ccc(O)c(c3)Oc3cc(O)cc4c3)c3ccc(O)c(c3)-c3c(OC4O[C@H](CO)[C@@H](O)[C@H](O)[C@@H]4O)cc(O)cc3[C@@H](C(=O)O)NC2=O)O[C@H](CO)[C@@H](O)[C@@H]1O (some centres not stated) [teicoplanin [a(2-1) shown]] | 0.4
CCCc1ncc(C[n+]2ccccc2C)c(N)n1 [amprolium] | 0.736
N=C(N)NC(=O)c1nc(Cl)c(N)nc1N [Amiloride hydrochloride] | 1.16
CC(C)(C)NCC(O)COc1cccc2c1C[C@H](O)[C@H](O)C2 (some centres not stated) [nadolol] | 0.61

Given in CSV form: entries from further up.
Compound,MUC1 transcript change (Z-score)
OC1(c2ccc(Cl)c(C(F)(F)F)c2)CCN(CCCC(c2ccc(F)cc2)c2ccc(F)cc2)CC1 [penfluridol],0.869
CCCCN(CCCC)CCCOC(=O)c1ccc(N)cc1 [butacaine],0.641
CN(C)c1cnccn1 [ampyzine sulfate],0.727
CCO/C(O)=C1/C(C)=NC(C)=C(C(=O)OC)C1c1cccc(Cl)c1Cl (configuration not stated) [felodipine],-0.277
N=C(N)NC(=O)c1nc(Cl)c(N)nc1N [Amiloride hydrochloride],1.16

The list goes on.

Compound | MUC1 transcript change (Z-score)
CCN(CC)Cc1ccc(Nc2ccnc3cc(Cl)ccc23)cc1O [amodiaquine dihydrochloride] | -0.428
CC(C)(C)NCC(O)COc1cccc2c1CCC(=O)N2 (configuration not stated) [carteolol hydrochloride] | 0.187
CC(C)NCC(O)COc1cccc2ccccc12 (racemic) [(±)-Propranolol hydrochloride] | -1.15
CS(=O)(=O)c1ccc([C@@H](O)[C@@H](CF)NC(=O)C(Cl)Cl)cc1 [florfenicol] | 0.926
CCN(CC)CCCC(C)Nc1ccnc2cc(Cl)ccc12 (configuration not stated) [Chloroquine phosphate] | 1.16
FCOC(C(F)(F)F)C(F)(F)F [sevoflurane] | 0.832
N[C@@H](CC(=O)O)C(=O)O [L-Aspartic acid] | 0.86
CC(=O)O[C@]1(C(C)=O)CCC2C3C=C(Cl)C4=CC(=O)CC[C@]4(C)C3CC[C@@]21C (some centres not stated) [chlormadinone acetate] | 0.459
Oc1ccc(C2CNCCc3c2cc(O)c(O)c3Cl)cc1 (configuration not stated) [fenoldipam mesylate] | -0.771
C[Se]CC[C@H](N)C(=O)O [selenomethionine] | 0.604
CCCCCN(C)CCC(O)(P(=O)(O)O)P(=O)(O)O [ibandronate sodium] | -1.74
NC(=O)c1ccccc1O [salicylamide] | 0.169
Oc1c(Br)cc(Br)c2cccnc12 [broxyquinoline] | 1.56
c1ccc(CN(CC2=NCCN2)c2ccccc2)cc1 [antazoline phosphate] | 0.0812
N#Cc1ccc(C(c2ccc(C#N)cc2)n2cncn2)cc1 [letrozole] | -0.747
NC(=O)c1cc[n+](CC2=C(C(=O)O)N3C(=O)C(NC(=O)C(c4ccccc4)S(=O)(=O)[O-])C3SC2)cc1 (configuration not stated) [cefsulodin sodium] | 1.58
CC(=O)[C@@]12O[C@](C)(c3ccccc3)O[C@@H]1C[C@H]1[C@@H]3CCC4=CC(=O)CC[C@]4(C)[C@H]3CC[C@@]12C [algestone acetophenide] | 0.214
O=C(O)Cc1ccccc1Nc1c(Cl)cccc1Cl [Diclofenac sodium] | 0.256
CCCSc1ccc2[nH]c(NC(=O)OC)nc2c1 [albendazole] | -0.554
CO[C@H]1/C=C/O[C@@]2(C)Oc3c(C)c(O)c4c(O)c(c(/C=N/N5CCN(C)CC5)c(O)c4c3C2=O)NC(=O)/C(C)=C\C=C\[C@H](C)[C@H](O)[C@@H](C)[C@@H](O)[C@@H](C)[C@H](OC(C)=O)[C@@H]1C [rifampin] | -0.434
CC(C)NCC(O)c1ccc(O)c(O)c1 (racemic) [(±)-Isoproterenol hydrochloride] | 0.61
Cc1ccc(NC(=O)c2ccc(CN3CCN(C)CC3)cc2)cc1Nc1nccc(-c2cccnc2)n1 [imatinib] | -0.0843
Nc1ccn([C@H]2CC[C@@H](CO)O2)c(=O)n1 [zalcitabine] | 0.524
CCc1ccc(CCOc2ccc(CC3SC(=O)NC3=O)cc2)nc1 (configuration not stated) [pioglitazone hydrochloride] | -0.469
